PMC10444199
Results are given in words; binding and its absence hold for the method and conditions named. For some of these results: In cells and extracts the contact can be indirect. Some results given as binding are weak or reduced against the parent protein; the word gives no strength.

The chains behind the UniProt entries cited, without tags or fusion partners. Residues count along the entry.
UniProt P25445, residues 26-335: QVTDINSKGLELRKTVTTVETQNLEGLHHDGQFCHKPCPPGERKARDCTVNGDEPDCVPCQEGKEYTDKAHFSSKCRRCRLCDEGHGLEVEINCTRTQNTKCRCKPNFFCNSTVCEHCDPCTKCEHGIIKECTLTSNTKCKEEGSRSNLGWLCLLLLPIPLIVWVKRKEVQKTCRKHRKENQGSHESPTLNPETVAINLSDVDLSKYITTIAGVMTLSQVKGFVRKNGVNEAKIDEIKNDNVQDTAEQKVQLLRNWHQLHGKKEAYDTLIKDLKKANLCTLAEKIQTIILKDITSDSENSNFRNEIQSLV
UniProt P97523, residues 25-1382: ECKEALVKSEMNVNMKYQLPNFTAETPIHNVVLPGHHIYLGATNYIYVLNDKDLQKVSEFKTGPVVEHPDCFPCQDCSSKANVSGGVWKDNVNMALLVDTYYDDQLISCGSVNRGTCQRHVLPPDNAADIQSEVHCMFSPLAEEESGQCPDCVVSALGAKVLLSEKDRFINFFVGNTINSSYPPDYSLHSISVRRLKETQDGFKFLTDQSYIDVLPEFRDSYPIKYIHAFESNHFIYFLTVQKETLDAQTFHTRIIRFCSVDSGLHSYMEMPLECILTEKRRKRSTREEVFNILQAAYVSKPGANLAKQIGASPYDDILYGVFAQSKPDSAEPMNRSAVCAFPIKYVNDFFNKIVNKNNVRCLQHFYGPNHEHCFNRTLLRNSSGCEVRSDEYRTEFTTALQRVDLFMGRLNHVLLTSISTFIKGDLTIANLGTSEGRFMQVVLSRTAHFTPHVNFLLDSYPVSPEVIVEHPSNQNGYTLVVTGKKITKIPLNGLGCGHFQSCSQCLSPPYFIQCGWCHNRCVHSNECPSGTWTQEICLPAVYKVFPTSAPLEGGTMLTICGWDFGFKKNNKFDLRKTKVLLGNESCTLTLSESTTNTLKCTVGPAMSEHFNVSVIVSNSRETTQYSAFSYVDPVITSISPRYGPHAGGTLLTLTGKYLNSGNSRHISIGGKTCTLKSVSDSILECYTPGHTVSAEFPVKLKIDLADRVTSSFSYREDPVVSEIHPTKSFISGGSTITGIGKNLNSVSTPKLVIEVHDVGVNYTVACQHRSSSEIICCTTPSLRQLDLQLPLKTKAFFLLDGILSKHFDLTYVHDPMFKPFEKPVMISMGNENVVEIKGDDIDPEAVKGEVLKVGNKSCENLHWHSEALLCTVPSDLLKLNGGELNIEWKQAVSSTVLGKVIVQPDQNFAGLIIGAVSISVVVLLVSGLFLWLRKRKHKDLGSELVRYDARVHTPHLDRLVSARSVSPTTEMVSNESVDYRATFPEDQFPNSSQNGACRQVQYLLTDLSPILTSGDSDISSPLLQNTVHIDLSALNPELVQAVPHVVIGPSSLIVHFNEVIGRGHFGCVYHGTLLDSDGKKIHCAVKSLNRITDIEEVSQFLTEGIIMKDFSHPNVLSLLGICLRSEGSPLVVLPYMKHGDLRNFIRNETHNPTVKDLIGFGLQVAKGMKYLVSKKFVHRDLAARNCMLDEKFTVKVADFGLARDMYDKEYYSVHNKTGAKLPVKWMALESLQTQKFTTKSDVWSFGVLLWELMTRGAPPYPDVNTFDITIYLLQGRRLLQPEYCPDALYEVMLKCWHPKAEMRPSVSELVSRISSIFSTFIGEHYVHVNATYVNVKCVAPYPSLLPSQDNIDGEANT
UniProt P08581, residues 25-1390: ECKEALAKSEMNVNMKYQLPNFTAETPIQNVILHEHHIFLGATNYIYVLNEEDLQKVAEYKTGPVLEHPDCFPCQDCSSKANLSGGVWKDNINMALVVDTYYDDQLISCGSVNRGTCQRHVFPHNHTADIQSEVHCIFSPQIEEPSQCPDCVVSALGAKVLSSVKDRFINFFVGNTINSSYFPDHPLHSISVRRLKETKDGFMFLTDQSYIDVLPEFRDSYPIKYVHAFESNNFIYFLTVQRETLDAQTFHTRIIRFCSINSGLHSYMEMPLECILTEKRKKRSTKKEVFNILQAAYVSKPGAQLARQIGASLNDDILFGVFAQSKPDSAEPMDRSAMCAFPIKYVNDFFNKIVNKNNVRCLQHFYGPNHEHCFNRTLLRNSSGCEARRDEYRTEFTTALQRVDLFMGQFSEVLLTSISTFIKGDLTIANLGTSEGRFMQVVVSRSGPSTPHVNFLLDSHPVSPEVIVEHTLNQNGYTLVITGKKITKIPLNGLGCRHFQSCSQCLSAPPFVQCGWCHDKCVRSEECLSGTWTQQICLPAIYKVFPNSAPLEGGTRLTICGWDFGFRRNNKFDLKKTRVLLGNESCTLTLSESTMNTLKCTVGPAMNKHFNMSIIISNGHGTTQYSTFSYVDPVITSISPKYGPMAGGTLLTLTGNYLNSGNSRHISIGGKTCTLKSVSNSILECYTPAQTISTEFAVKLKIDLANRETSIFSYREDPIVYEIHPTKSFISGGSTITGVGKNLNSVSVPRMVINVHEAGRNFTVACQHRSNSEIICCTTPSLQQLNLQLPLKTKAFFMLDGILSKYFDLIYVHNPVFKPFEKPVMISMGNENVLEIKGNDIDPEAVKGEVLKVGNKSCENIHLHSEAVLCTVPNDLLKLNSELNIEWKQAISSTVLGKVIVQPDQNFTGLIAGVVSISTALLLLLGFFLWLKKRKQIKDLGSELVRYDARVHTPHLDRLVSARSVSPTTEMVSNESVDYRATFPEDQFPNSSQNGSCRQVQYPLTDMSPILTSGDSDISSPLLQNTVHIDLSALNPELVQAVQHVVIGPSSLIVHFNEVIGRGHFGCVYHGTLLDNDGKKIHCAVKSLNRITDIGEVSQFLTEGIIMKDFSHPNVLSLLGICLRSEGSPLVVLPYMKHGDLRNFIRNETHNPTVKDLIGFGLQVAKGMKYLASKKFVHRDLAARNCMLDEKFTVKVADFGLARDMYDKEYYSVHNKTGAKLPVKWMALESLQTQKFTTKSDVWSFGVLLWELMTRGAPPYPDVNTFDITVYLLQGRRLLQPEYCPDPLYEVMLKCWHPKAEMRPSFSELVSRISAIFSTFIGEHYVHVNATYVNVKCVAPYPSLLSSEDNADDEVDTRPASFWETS

T1: Fas (death receptor FAS), rat (rat (endogenous in Lewis rat splenic CD8+ T cells)) (UniProt Q63199)
T1 sequence: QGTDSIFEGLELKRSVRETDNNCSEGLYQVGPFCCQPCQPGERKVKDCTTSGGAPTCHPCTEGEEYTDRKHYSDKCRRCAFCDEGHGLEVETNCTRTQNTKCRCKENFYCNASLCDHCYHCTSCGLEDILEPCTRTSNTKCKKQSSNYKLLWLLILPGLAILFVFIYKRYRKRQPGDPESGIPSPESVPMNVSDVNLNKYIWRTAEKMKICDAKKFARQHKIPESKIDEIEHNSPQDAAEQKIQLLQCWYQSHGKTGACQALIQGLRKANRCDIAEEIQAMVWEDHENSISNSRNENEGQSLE

B1: Fas-associated protein with death domain (FADD), rat (protein, UniProt Q8R2E7 1-208)
chain: MDPFLVLLHSLSSSLSGNDLTDLKFLCRERVSKRKLERVQSGLDLFSVLLEQNDLERGHTGLLRELLASLGRHDLLQRLDDFEAGATTAATPGEADLRVAFDIVCDNVGRDWKRLARELKVSEAKIDGIEERYPRSLSDRVRETLRVWKNVEKENASVAGLVKALRACRLNLVADLVEEALMAQGSVSKSDDTSSALRDSTVSFSETP
B2: caspase-8, rat (enzyme, UniProt Q9JHX4 1-482)
chain: MDFHSCLYDIAERLGNEELAALKFLCLDHIPQKKQESINDVLVLFQRLQEEGMLEEDNLSFLKELLFHISRRDLLSRVLKSSPEEMVRELQVLGKAQVSAYRVMLFKLSEDMDKEDLKSFKFLLITEIPKCKLQDNSSLLDIFVEMEKRTILAENNLVTLKSICFRVNRSLLGRIDDYERSSTERRMSTEGGEELPVSVLDEVTIKMQDMWDSPGEQESESLNSDNVYQMKSKPRGYCLIFNNNNFSKAREDIPKLSNMRDRKGTNYDEEALSKTFKELHFEIVSFSDCTASQIHEVLVSYQSKDHKGKDCFICCILSHGDKGIVYGTDGKEASIYELTSYFTGSKCPSLAGKPKIFFIQACQGNNFQKAVPVPDETGLEQEHVLEEDSSSYKNYIPDEADFLLGMATVKNCVSYRDPTRGTWYIQSLCQSLRERCPRGEDILSILTGVNYDVSNKDNPRNMGKQMPQPIFTLRKKLFFPPN

How the values were obtained:
[1] = molecular target: T1, Fas (death receptor FAS), rat (rat (endogenous in Lewis rat splenic CD8+ T cells)); test: co-IP; lysates of 1 x 10^6 MACS-purified Lewis rat naive splenic CD8+ T cells; IP with an antibody against Fas or cMet on protein A/G magnetic beads, IB with anti-cMet (145 kDa) or anti-Fas (35 kDa); isotype IgG controls
[2] = molecular target: FAS, human (human (endogenous in peripheral blood CD8+ T cells)) (UniProt P25445); test: co-IP; human healthy peripheral blood MACS-purified CD8+ T cells; cMet-FAS interaction, two individuals (n1-n2)
[3] = molecular target: T1, Fas (death receptor FAS), rat (rat (endogenous in Lewis rat splenic CD8+ T cells)); test: SPR; localized surface plasmon resonance (LSPR); 50 ug/mL Fas antibody immobilised on a COOH sensor chip; total protein (50 ug/mL) of cell lysates of MACS-purified splenic aCD8+ T cells injected at 20 ul/min, Fas captured; antibodies against cMet, FADD and caspase-8 added for 5 min, dissociation 7 min; IgG1 as negative control; cells untreated (allo-OLT), treated with h-rHGF within 72 h, or with anti-cMet-Ab

Molecule | binding [3] | further results
cMet (HGF-only receptor), rat (from UniProt P97523 25-1382) |  | binding [1]: binds
cMet, human (from UniProt P08581 25-1390) (receptor) |  | binding [2]: binds
B1 | binds | 
B2 | binds | 
